The list shows a part of the results. Repeats in this data set agree poorly, so a single value says little.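 Human embryonic kidney cells were transiently transfected with a plasmid bearing a Renilla luciferase gene under the HSV-TK promoter. This first-round screen tests roughly ten thousand compounds for ones that increase reporter output.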
tested on: HEK 293FT; experiment: log relative Renilla luciferase luminescence (reporter expression vs reference, reference not stated) (log (base not stated)); higher = higher recombinant reporter expression; settings: 10 µM; time after transfection 48 h
Method: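 HEK 293FT cells transiently transfected with pRL-TK (Renilla luciferase) were treated with compounds at 10 uM and luminescence was read about 42 h later. Values are log relative Renilla luminescence (log base and reference not stated). Single-pass screen; 2080 natural products library.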

| Structure (SMILES) | log |
| --- | --- |
| COc1c(O)cc(O)c2c(=O)c3ccccc3n(C)c12 [1,3-Dihydroxy-4-methoxy-10-methylacridin-9(10H)-one] | -7.71e-05 |
| CC(=O)Oc1cc(O)c2c(c1)O[C@H](c1ccccc1)CC2=O [Pinocembrin 7-acetate] | -0.112 |
| O=C(O)c1ccc(O)c(O)c1 [3,4-Dihydroxybenzoic acid] | 0.119 |
| CC(C)C[C@@H]1c2c(O)c(C=O)c(O)c(C=O)c2O[C@@H](c2c(O)c(C=O)c(O)c(C=O)c2O)[C@@H]1C(C)C [Sideroxylonal A] | -0.253 |
| CC[C@H](/C=C/[C@@H](C)[C@H]1CC[C@H]2[C@@H]3CC=C4C[C@@H](O)CC[C@]4(C)[C@H]3CC[C@]12C)C(C)C [Stigmasterol] | -0.0384 |
| C[C@@H](C[C@@H](O)[C@@H]1OC1(C)C)[C@@H]1CC[C@]2(C)C3=CC[C@H]4C(C)(C)[C@@H](O)CC[C@]4(C)[C@H]3CC[C@@]12C [Dihydroniloticin] | -0.163 |
| COc1c(O)cc(O)c2c1OC(c1ccccc1O)CC2=O (stereo not given) [2',5,7-Trihydroxy-8-methoxyflavanone] | -0.499 |
| COc1cc2c(c(OC)c1OC)-c1c(cc3c(c1O)OCO3)C[C@H](C)[C@@H](C)C2 [Gomisin M2] | -0.334 |
| COc1cc(-c2oc3cc(OC)c(OC)c(O)c3c(=O)c2OC)ccc1O [Chrysosplenetin] | 0.107 |
| COc1c(OC)c(OC)c2oc(=O)ccc2c1OC [5,6,7,8-Tetramethoxycoumarin] | -0.159 |
| O=C(O)c1ccccc1 [Benzoic acid] | -0.117 |
| O=C(O)/C=C/C(=O)O [Fumaric acid] | -0.152 |
| CC(=O)O[C@H]1[C@H](OC(C)=O)[C@]2(C)O[C@]3(CC[C@]2(C)[C@H]2[C@H](OC(=O)c4cccnc4)CC=C(C)[C@]12C)COC(=O)C3 [Scutebata F] | 0.122 |
| COc1c2ccoc2c(OC)c2oc(=O)ccc12 [Isopimpinellin] | -0.0216 |
| CC(=O)Oc1cc(OC(C)=O)c2c(c1)OC(c1c(OC(C)=O)cccc1OC(C)=O)CC2=O (stereo not given) [2',5,6',7-Tetraacetoxyflavanone] | -0.337 |
| CC[C@H](/C=C/[C@@H](C)[C@H]1CC[C@H]2[C@@H]3CCC4=CC(=O)CC[C@]4(C)[C@H]3CC[C@]12C)C(C)C [Stigmasta-4,22-dien-3-one] | -0.138 |
| CCCCCCCc1cc(=O)c2ccccc2n1C [1-Methyl-2-heptyl-4(1H)-quinolinone] | -0.028 |
| C=C(C)[C@@H]1CC[C@]2(C(=O)OC)CC[C@]3(CO)[C@H](CC[C@@H]4[C@@]5(C)CC[C@@H](OC(C)=O)C(C)(C)[C@@H]5CC[C@]43C)[C@@H]12 [3-Acetoxy-27-hydroxy-20(29)-lupen-28-oic acid methyl ester] | -0.445 |
| O=C/C=C/c1ccccc1O [3-(2-Hydroxyphenyl)-2-propenal] | -0.0654 |
| CC(C)C[C@H](c1c(O)c(C=O)c(O)c(C=O)c1O)[C@@]1(C)CC[C@@H]2[C@@H]1[C@H]1[C@@H](CC[C@@]2(C)O)C1(C)C [Macrocarpal B] | -0.22 |

| Structure (SMILES) | log |
| --- | --- |
| O=c1ccc2ncc(O)c3c4ccccc4n1c23 [1-Hydroxycanthin-6-one] | -1.1 |
| COc1cc([C@H]2c3cc(O)c(OC)cc3C=C(C=O)[C@@H]2CO)ccc1O [7,8,9,9-Tetradehydroisolariciresinol] | 0.0528 |
| CC(=O)O[C@H]1C[C@H]2OC[C@@]2(OC(C)=O)[C@H]2[C@H](OC(C)=O)[C@]3(C(C)(C)O)C[C@H](O)C(C)=C3[C@@H](OC(=O)c3ccccc3)[C@H](OC(C)=O)[C@]12C [Taxayunnansin A] | -0.0163 |
| CC1(C)O[C@H]2CC(=O)OC[C@]23[C@H]2CC[C@@]4(C)[C@H](C5=CC(=O)OC5O)OC(=O)[C@H]5O[C@]54[C@]2(C)C(=O)C[C@@H]13 (stereo not given in full) [Limonexic acid] | 0.766 |
| O=C(/C=C/c1ccc(O)cc1)NCCc1ccc(O)cc1 [N-p-trans-Coumaroyltyramine] | -0.382 |
| C/C=C1/CN2CCC1C(CO)(C(=O)OC)c1[nH]c3ccccc3c1C2 (stereo not given) [19,20-(E)-Isovallesamine] | -0.344 |
| CC1(C)CC[C@]2(C)CC=C3[C@]4(C)CC[C@H]5C(C)(C)C(=O)CC[C@]5(C)[C@H]4CC[C@@]3(C)[C@@H]2C1 [Taraxerone] | 0.0364 |
| O=C(OCc1ccccc1O[C@@H]1O[C@H](CO)[C@@H](O)[C@H](O)[C@H]1O)c1c(O)cccc1O[C@@H]1O[C@H](CO)[C@@H](O)[C@H](O)[C@H]1O [Henryoside] | 0.106 |
| COC(=O)CCC(C)=O [Methyl levulinate] | 0.0279 |
| COc1c(O)cc(O)c2c(=O)cc(-c3ccc(O)cc3)oc12 [4'-Hydroxywogonin] | -0.499 |
| COC(=O)c1c[nH]c2ccccc12 [Methyl 3-indolecarboxylate] | 0.00611 |
| COc1cc2c(cc1OC)[C@@H]1Cc3ccc(OC)c(OC)c3CN1CC2 [Tetrahydropalmatine] | -0.288 |
| COC(=O)C1CC23C(=O)C4CC5N(CC4C)CC(CCC4=C2C1CC4)C53C (stereo not given) [Daphniyunnine A] | 0.035 |
| COc1c(O)cc(-c2oc3cc(O)cc(O)c3c(=O)c2O[C@@H]2O[C@@H](C)[C@H](O)[C@@H](O)[C@H]2O)cc1O [Mearnsitrin] | -0.435 |
| CC(C)(O)[C@H](O)COc1c2occc2cc2ccc(=O)oc12 [Heraclenol] | 0.226 |
| O=C1c2c(O)cc(O)cc2O[C@H](c2ccc(O)cc2)[C@H]1O [Aromadendrin] | 0.00461 |
| COc1cc([C@H](O)[C@@H](O)CO)cc(OC)c1O [threo-1-C-Syringylglycerol] | 0.0594 |
| C=C1CC[C@H]2C(=C)CC[C@@H]3[C@H](OC(=O)[C@@H]3CS(=O)(=O)O)[C@@H]12 [Sulfocostunolide B] | -1.2 |
| COc1c(OC(C)=O)cc(OC(C)=O)c2c(=O)cc(-c3ccccc3)oc12 [5,7-Diacetoxy-8-methoxyflavone] | 0.0322 |
| CC(C)CC[C@@H](O)[C@](C)(O)[C@H]1CC[C@@]2(O)C3=CC(=O)[C@@H]4C[C@@H](O)[C@@H](O)C[C@]4(C)[C@H]3CC[C@]12C [Ponasterone A] | 0.0623 |

Among those listed so far, six contain nitrogen in an aromatic ring:

| Structure (SMILES) | log |
| --- | --- |
| COc1c(O)cc(O)c2c(=O)c3ccccc3n(C)c12 [1,3-Dihydroxy-4-methoxy-10-methylacridin-9(10H)-one] | -7.71e-05 |
| CC(=O)O[C@H]1[C@H](OC(C)=O)[C@]2(C)O[C@]3(CC[C@]2(C)[C@H]2[C@H](OC(=O)c4cccnc4)CC=C(C)[C@]12C)COC(=O)C3 [Scutebata F] | 0.122 |
| CCCCCCCc1cc(=O)c2ccccc2n1C [1-Methyl-2-heptyl-4(1H)-quinolinone] | -0.028 |
| O=c1ccc2ncc(O)c3c4ccccc4n1c23 [1-Hydroxycanthin-6-one] | -1.1 |
| C/C=C1/CN2CCC1C(CO)(C(=O)OC)c1[nH]c3ccccc3c1C2 (stereo not given) [19,20-(E)-Isovallesamine] | -0.344 |
| COC(=O)c1c[nH]c2ccccc12 [Methyl 3-indolecarboxylate] | 0.00611 |

Reference: the supplement of paper PMC7024190
